Data as given in patent US20190062386A1 (UNIVERSITY OF NORTH CAROLINA AT CHAPEL HILL, published 2019).
These are yes or no findings as the source states them, for the method shown. Binding seen in cells or lysates may run through a third protein. Some results given as binding are weak or reduced against the parent protein; the word gives no strength. Tags and fused reporters may be left off the sequences shown.

Amino acid sequences for entries named in this document (tags omitted).
UniProt Q96D31: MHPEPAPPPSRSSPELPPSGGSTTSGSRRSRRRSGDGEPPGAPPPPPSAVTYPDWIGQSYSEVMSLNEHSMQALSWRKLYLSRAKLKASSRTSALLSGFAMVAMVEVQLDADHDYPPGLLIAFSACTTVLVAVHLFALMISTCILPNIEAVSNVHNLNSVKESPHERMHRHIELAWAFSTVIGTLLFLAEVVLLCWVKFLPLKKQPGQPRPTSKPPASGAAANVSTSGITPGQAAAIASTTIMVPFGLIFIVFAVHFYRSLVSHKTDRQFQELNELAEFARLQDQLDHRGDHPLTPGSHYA

Tests used:
[1] = target: HA tagged human Orai1 (human) (UniProt Q96D31); assay: co-immunoprecipitation from lysates of cotransfected HEK293T cells
[2] = target: HA tagged human Orai1 (human) (UniProt Q96D31); assay: co-immunoprecipitation in both directions (anti-V5, anti-HA), HEK293T lysates, immunoblot

B1: V5-SPLUNC1 (other, not shown: small tags and cut ends)
chain: QFGGLPVPLDQTLPLNVNPALPLSPTGLAGSLTNALSNGLLSGGLLGILENLPLLDILKPGGGTSGGLLGGLLGKVTSVIPGLNNIIDIKVTDPQLLELGLVQSPDGHRLYVTIPLGIKLQVNTPLVGASLLRLAVKLDITAEILAVRDKQERIHLVLGDCTHSPGSLQISLLDGLGPLPIQGLLDSLTGILNKVLPELVQGNVCPLVNEVLRGLDITLVHDIVNMLIHGLQFVIKV
notes: Expressed in HEK293T cells and tested in cell lysates; The tag is placed first only because the name is printed that way; also called pcDNA3.1(+)-V5-SPLUNC1
binding [1]: binds
binding [2]: binds
